# The whole screen tested about 400,000 compounds, of which about 5,500 (1.4%) were called active. Inconclusive means that the source gave no clear call. Such entries were picked first, then a sample of the others. Calls come from the whole dose curve; as a rule, active = well fitted cell-killing curve with a large enough effect; inconclusive = small, poorly fitted or top-dose-only effect, or effect the other way; inactive = flat fitted curve, though single readings scatter. Potencies of inconclusive entries are doubtful fits and often do not repeat.
# Assay: qHTS assay for MDR1-selective chemotherapeutics: Primary screen using the parental adenocarcinoma cell KB-3-1; note: nearly all actives have a fitted effect of over 60% in size
# Details: KB-3-1 viability, CellTiter-Glo ATP luminescence, 72 h; activity change, negative = cytotoxic: at 46.1 µM (top of the series)
# Procedure, shortened: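 Using CellTiter-Glo luminescence, growth of non-resistant KB-3-1 adenocarcinoma cells is assessed 72 h after pin-tool compound addition at 37 °C. Normalized responses across the concentration series yield fitted curves.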
# % is set by controls: 0 for no effect and ±100 for the full control effect; potency is the fitted concentration of half-maximal effect.
SMILES,Potency,"activity change, negative = cytotoxic"
O=C(CC1N=C2c3ccccc3N=C(SCc3ccc(Cl)cc3)N2C1=O)NCCc1ccccc1 (centres undefined),"inconclusive: 29.1 µM [cytotoxic, single point]",
O=c1cc(-c2ccccc2F)oc2ccccc12,inactive,
CCOc1ccc(C2c3c(-c4ccc(C)cc4)n[nH]c3C(=O)N2c2ccc(Cl)cc2)cc1 (centres undefined),"inconclusive: 18.4 µM [cytotoxic, single point]",
COc1cccc(/C=C/c2ccc3cccc(O)c3n2)c1,"inconclusive: 18.4 µM [cytotoxic, single point]",
Cc1ccc(-c2nc3n(n2)C(c2ccccc2C)C=C(c2ccc(Cl)cc2)N3)cc1 (centres undefined),"inconclusive: 23.1 µM [cytotoxic, single point]",
COc1ccc(OCC(=O)NCCCCCCNC(=O)COc2ccc(OC)cc2)cc1,,inconclusive: 0%
Cc1cc2c3c(c1C)C(=O)C(=O)N3C(C)(C)CC2C (centres undefined),inactive,
CC(C)(C)OC(=O)CNC(=O)c1[nH]cnc1C(=O)NC(c1ccccc1)c1ccccc1,"inconclusive: 29.1 µM [cytotoxic, single point]",
O=[N+]([O-])c1ccc(/C=N/Nc2nc(N3CCCCCC3)nc(N3CCCCCC3)n2)o1,active: 6.51 µM,
CCc1ccc(C2=CC(c3cc(Br)ccc3F)n3ncnc3N2)cc1 (centres undefined),active: 8.2 µM,
Cn1c(SCC(=O)Nc2ccccc2C(F)(F)F)nc2c(c1=O)SCC2,"inconclusive: 23.1 µM [cytotoxic, single point]",
CCC(C)(C)NC(=O)C(c1ccc(OC)cc1)N(Cc1ccccc1)C(=O)CCC(=O)Nc1cc(C)on1 (centres undefined),,inconclusive: -1.41%
Cc1ccc(-c2nc3[nH]c(=O)cc(NC(=O)c4cccs4)n3n2)cc1,"inconclusive: 29.1 µM [cytotoxic, single point]",
Clc1nc(-c2ccccn2)nc2scc(-c3ccccc3)c12,"inconclusive: 23.1 µM [cytotoxic, single point]",
COc1ccc(-c2cc([N+](=O)[O-])ccc2OCC(=O)N(C)CC(=O)Nc2ccc(C)cc2)cc1,"inconclusive: 16.4 µM [cytotoxic, single point]",
Fc1ccc(-c2nn(-c3ccccc3)cc2CNCc2ccccc2)cc1,"inconclusive: 23.1 µM [cytotoxic, single point]",
CSc1nc(N)c(C#N)c(-c2ccccc2Cl)c1C#N,"inconclusive: 29.1 µM [cytotoxic, single point]",
COc1ccc(CNC(=O)C2CCN(c3nc4ccccc4[nH]3)CC2)c(OC)c1,inactive,
O=c1[nH]c(-c2ccc(F)cc2)nc2c1sc(=S)n2-c1ccccc1,"inconclusive: 25.9 µM [cytotoxic, single point]",
CC(C(=O)Nc1ccccc1)c1ccc(-c2ccccc2)c(F)c1 (centres undefined),"inconclusive: 14.6 µM [cytotoxic, single point]",
CC(=O)COc1ccc2c3c(c(=O)oc2c1)CCCC3,inactive,
CCCCCOC(=O)c1cc(=O)[nH]c2ccccc12,active: 8.2 µM,

SMILES,Potency,"activity change, negative = cytotoxic"
Cc1ccc(C)c(-c2nnc(NC(=O)c3ccc([N+](=O)[O-])o3)o2)c1,"inconclusive: 23.1 µM [cytotoxic, single point]",
COc1ccc(C2=NN(CN3C(=O)C(=O)c4ccccc43)C(c3ccc(C)cc3)C2)cc1 (centres undefined),inactive,
Cc1ccc(S(=O)(=O)N2CCN(c3nc(-c4ccccc4)nc4ccccc34)CC2)cc1,"inconclusive: 1.16 µM [cytotoxic, full curve]",
Cc1cc(Nc2ccc(C)c(C)c2)c2ccccc2n1,inactive,
N#CC1=C(N)Oc2cc(N)ccc2C1c1ccccc1F (centres undefined),"inconclusive: 25.9 µM [cytotoxic, partial curve, poor fit]",
CC(C)CN(C(=O)COC(=O)Cc1c[nH]c2ccccc12)c1c(N)n(Cc2ccccc2)c(=O)[nH]c1=O,"inconclusive: 23.1 µM [rising, single point]",
Cc1ccc(NC(=O)C2CCN(C(=O)c3ccco3)CC2)cc1,,inconclusive: 3.11%
Cc1cc(N(C)C)ccc1/C=C/c1ccnc2ccccc12,"inconclusive: 1.84 µM [cytotoxic, full curve, poor fit]",
NC(=O)c1nnn(Cc2cc(Cl)c(C(=O)c3ccc(Cl)cc3)c(Cl)c2)c1N,"inconclusive: 23.1 µM [cytotoxic, partial curve, poor fit]",
CC(=O)N/C(=C\c1ccccc1)C(=O)OCC(=O)Nc1cc(S(=O)(=O)N(C)C)ccc1Cl,inactive,
CC(C)Cc1ccc(S(=O)(=O)N2CCCC2)cc1,"inconclusive: 13 µM [cytotoxic, partial curve]",
CNc1ccc(/C=C2\C=Cc3ccccc32)cc1Cl,"inconclusive: 29.1 µM [cytotoxic, single point]",
O=C(Nc1ccc2c(c1)CCC2)Nc1nnc(-c2ccncc2)s1,"inconclusive: 29.1 µM [cytotoxic, single point]",
CC(=O)N1CCc2c(sc(NC(=O)c3ccc4c(c3)OCCO4)c2C#N)C1,"inconclusive: 6.51 µM [cytotoxic, partial curve, poor fit]",
O=C(c1cccs1)N1CCc2c([nH]c3ccccc23)C1c1ccccn1 (centres undefined),"inconclusive: 0.366 µM [rising, full curve]",
C[C@H](C[C@H](O)[C@H]1OC1(C)C)C1=C2C[C@H](O)C3[C@@]4(C)CCC(=O)C(C)(C)C4CC[C@]3(C)[C@@]2(C)CC1 (some centres undefined),"inconclusive: 29.1 µM [cytotoxic, single point]",
CCCCCC(=O)N/N=C(\C)c1ccccn1,"inconclusive: 9.2 µM [cytotoxic, partial curve, poor fit]",
Cc1nc2c3cc(F)ccc3n(Cc3ccccc3)c2s1,active: 16.4 µM,
COc1ccc(OC)c(NC(=O)c2nnn(Cc3ccccc3C)c2N)c1,active: 9.2 µM,
O=C(CSc1nnnn1C1CCCCC1)Nc1cccc(NC(=O)c2ccco2)c1,inactive,
COc1cc(C)ccc1S(=O)(=O)NC(=O)C1(C)CCN1C(=O)Cc1ccc(C(C)(C)C)cc1 (centres undefined),inactive,
O=C(COC(=O)C1(c2ccc(Cl)cc2)CCCC1)N1CCc2ccccc21,"inconclusive: 29.1 µM [cytotoxic, single point]",

# Part of the list above, as tab-separated lines:
SMILES	Potency	activity change, negative = cytotoxic
CC(C)CN(C(=O)COC(=O)Cc1c[nH]c2ccccc12)c1c(N)n(Cc2ccccc2)c(=O)[nH]c1=O	inconclusive: 23.1 µM [rising, single point]	
Cc1ccc(NC(=O)C2CCN(C(=O)c3ccco3)CC2)cc1		inconclusive: 3.11%
Cc1cc(N(C)C)ccc1/C=C/c1ccnc2ccccc12	inconclusive: 1.84 µM [cytotoxic, full curve, poor fit]	
